# Patent US4731363A, “Thromboxane synthase inhibitors as insulin lowering agents and antiobesity agents” (priority 1986, dated 1988)
# Chains of the proteins cited; added tags and fusions are not shown.
# UniProt H0UT36, entry or part of it: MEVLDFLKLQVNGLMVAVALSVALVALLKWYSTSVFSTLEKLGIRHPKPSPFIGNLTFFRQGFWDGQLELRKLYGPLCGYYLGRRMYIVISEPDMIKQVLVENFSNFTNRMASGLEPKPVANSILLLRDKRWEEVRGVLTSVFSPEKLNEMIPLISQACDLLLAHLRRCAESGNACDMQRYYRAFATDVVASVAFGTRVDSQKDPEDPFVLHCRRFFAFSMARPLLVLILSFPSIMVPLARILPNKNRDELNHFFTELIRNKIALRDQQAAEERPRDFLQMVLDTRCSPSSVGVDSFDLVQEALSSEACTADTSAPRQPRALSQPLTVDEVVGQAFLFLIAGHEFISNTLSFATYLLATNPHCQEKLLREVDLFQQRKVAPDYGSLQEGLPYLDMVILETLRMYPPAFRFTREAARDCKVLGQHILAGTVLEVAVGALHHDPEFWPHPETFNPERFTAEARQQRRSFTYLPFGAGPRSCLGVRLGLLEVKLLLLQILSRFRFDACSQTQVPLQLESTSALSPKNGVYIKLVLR
# pIC50: −log10 of the molar value. Several values for one entry are separate records, joined by “and”; a condition that tells them apart may be missing. Equal entries are not always repeated.
# Target: T1, thromboxane synthase (Guinea Pig Lung Microsomes) (Cavia porcellus, UniProt H0UT36)
# T1 construct: The lungs were removed, freed of trachea and the majority of blood removed by rinsing the lungs with buffer; from tissue; host or cells: lungs of male guinea pigs (microsomes, 110,000 g pellet)
# Assay: biochemical
# Conditions: enzyme source G = Guinea Pig Lung Microsomes
# Experimental: In said assay procedure, microsomes from guinea pig lung or human platelets are added to an endoperoxide intermediate in prostaglandin biosynthesis and the inhibitor in phosphate buffer solution followed by incubation, extraction and determination of the extent of thromboxane synthase inhibition by TLC with radiochromatographic profile analysis. […]
# Isolation of Guinea Pig Lung Microsomes
# Four male guinea pigs (.congruent.500 g each) were sacrificed by spinal dislocation. The lungs were removed, freed of trachea and the majority of blood removed by rinsing the lungs with buffer (0.1M phosphate pH 7.5) via the pulmonary artery. The lung tissue (18.3 g total wet wt.), was then minced, suspended in three volumes of buffer and homogenized using, initially, a Brinkmann polytron homogenizer and, finally, a glass-teflon tissue grinder. The homogenate was centrifuged at 12,000 g for 1 hr. and the resultant supernatant recentrifuged at 110,000 g for 1 hr. […]
# The extract was applied to an I.T.L.C., type SG, glass fiber sheet (Gelman Instrument Co., Ann Arbor, Mich.) and developed in isooctane; methyl ethyl ketone: acetic acid (100:19:1 or 100:9:1) (19). […] In certain cases, based on the radiochromatographic profile obtained, the sheets were cut, the appropriate regions placed in scintillation vials, 10 ml of LSC cocktail (Yorktown Research, S. Hackensack, NJ) added, and the relative cpm determined.
row,SMILES,pIC50
1,"Clc1ccc(COC(Cn2ccnc2)c2ccc(Cl)cc2Cl)c(Cl)c1 (centres unmarked) [1-[2-(2,4-dichlorophenyl)-2-[(2,4-dichlorophenyl)-methoxy]ethyl]-1H--imidazole, reference compound]",< 4.00 and > 3.00
2,"Clc1ccccc1C(c1ccccc1)(c1ccccc1)n1ccnc1 [1-[(2-chlorophenyl)diphenylmethyl]-1H--imidazole, reference compound]",4.00 to 5.00
